Results are given in words; binding and its absence hold for the method and conditions named. In cells and extracts the contact can be indirect. Some results given as binding are weak or reduced against the parent protein; the word gives no strength. Where a sequence is shown, tags or fusion partners need not be part of it.
T1: CD83-3×Flag (human CD83, full length, with C-terminal 3×Flag tag) (human) (UniProt Q01151)
T1 sequence: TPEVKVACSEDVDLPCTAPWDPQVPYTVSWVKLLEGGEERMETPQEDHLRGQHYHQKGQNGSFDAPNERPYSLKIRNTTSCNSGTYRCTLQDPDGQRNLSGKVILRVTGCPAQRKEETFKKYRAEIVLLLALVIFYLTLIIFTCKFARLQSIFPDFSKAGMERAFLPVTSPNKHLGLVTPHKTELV


Target: T1, CD83-3×Flag (human CD83, full length, with C-terminal 3×Flag tag) (human)
Test: co-IP; CD83-3×Flag, CD83 ΔID-3×Flag or control SKOV3 cells lysed, immunoprecipitated with anti-Flag magnetic beads; Western blot for Flag, TAK1, TAB1, β-actin

| binding | Binder |
| --- | --- |
| binds | mitogen-activated protein kinase kinase kinase 7 (MAP3K7) (protein, UniProt O43318 1-606) MSTASAASSSSSSSAGEMIEAPSQVLNFEEIDYKEIEVEEVVGRGAFGVVCKAKWRAKDVAIKQIESESERKAFIVELRQLSRVNHPNIVKLYGACLNPVCLVMEYAEGGSLYNVLHGAEPLPYYTAAHAMSWCLQCSQGVAYLHSMQPKALIHRDLKPPNLLLVAGGTVLKICDFGTACDIQTHMTNNKGSAAWMAPEVFEGSNYSEKCDVFSWGIILWEVITRRKPFDEIGGPAFRIMWAVHNGTRPPLIKNLPKPIESLMTRCWSKDPSQRPSMEEIVKIMTHLMRYFPGADEPLQYPCQYSDEGQSNSATSTGSFMDIASTNTSNKSDTNMEQVPATNDTIKRLESKLLKNQAKQQSESGRLSLGASRGSSVESLPPTSEGKRMSADMSEIEARIAATTAYSKPKRGHRKTASFGNILDVPEIVISGNGQPRRRSIQDLTVTGTEPGQVSSRSSSPSVRMITTSGPTSEKPTRSHPWTPDDSTDTNGSDNSIPMAYLTLDHQLQPLAPCPNSKESMAVFEQHCKMAQEYMKVQTEIALLLQRKQELVAELDQDEKDQQNTSRLVQEHKKLLDENKSLSTYYQQCKKQLEVIRSQQQKRQGTS |
| binds | TGF-beta activated kinase 1 (MAP3K7) binding protein 1 (TAB1) (protein, UniProt Q15750 1-504) MAAQRRSLLQSEQQPSWTDDLPLCHLSGVGSASNRSYSADGKGTESHPPEDSWLKFRSENNCFLYGVFNGYDGNRVTNFVAQRLSAELLLGQLNAEHAEADVRRVLLQAFDVVERSFLESIDDALAEKASLQSQLPEGVPQHQLPPQYQKILERLKTLEREISGGAMAVVAVLLNNKLYVANVGTNRALLCKSTVDGLQVTQLNVDHTTENEDELFRLSQLGLDAGKIKQVGIICGQESTRRIGDYKVKYGYTDIDLLSAAKSKPIIAEPEIHGAQPLDGVTGFLVLMSEGLYKALEAAHGPGQANQEIAAMIDTEFAKQTSLDAVAQAVVDRVKRIHSDTFASGGERARFCPRHEDMTLLVRNFGYPLGEMSQPTPSPAPAAGGRVYPVSVPYSSAQSTSKTSVTLSLVMPSQGQMVNGAHSASTLDEATPTLTNQSPTLTLQSTNTHTQSSSSSSDGGLFRSRPAHSLPPGEDGRVEPYVDFAEFYRLWSVDHGEQSVVTAP |

Reference: PMC7465057
